Results as given in patent US20240309360A1, “TRANS-ACTIVATORS AND METHODS AND USE THEREOF” (THE GOVERNING COUNCIL OF THE UNIVERSITY OF TORONTO, priority 2021, published 2024).
Results are given in words; binding and its absence hold for the method and conditions named. In cells and extracts the contact can be indirect. These calls come from enrichment with a bait or labelling near it, and not all partners need be listed.

Chains of the proteins cited; added tags and fusions are not shown. Lines headed by an entry give the natural chain unless they say otherwise; changes in a name come on top. A line that says so, or that is headed by a name, gives the form on record, which may keep a tag or linker. Residues count along the entry.
UniProt Q09472, residues 2-2414: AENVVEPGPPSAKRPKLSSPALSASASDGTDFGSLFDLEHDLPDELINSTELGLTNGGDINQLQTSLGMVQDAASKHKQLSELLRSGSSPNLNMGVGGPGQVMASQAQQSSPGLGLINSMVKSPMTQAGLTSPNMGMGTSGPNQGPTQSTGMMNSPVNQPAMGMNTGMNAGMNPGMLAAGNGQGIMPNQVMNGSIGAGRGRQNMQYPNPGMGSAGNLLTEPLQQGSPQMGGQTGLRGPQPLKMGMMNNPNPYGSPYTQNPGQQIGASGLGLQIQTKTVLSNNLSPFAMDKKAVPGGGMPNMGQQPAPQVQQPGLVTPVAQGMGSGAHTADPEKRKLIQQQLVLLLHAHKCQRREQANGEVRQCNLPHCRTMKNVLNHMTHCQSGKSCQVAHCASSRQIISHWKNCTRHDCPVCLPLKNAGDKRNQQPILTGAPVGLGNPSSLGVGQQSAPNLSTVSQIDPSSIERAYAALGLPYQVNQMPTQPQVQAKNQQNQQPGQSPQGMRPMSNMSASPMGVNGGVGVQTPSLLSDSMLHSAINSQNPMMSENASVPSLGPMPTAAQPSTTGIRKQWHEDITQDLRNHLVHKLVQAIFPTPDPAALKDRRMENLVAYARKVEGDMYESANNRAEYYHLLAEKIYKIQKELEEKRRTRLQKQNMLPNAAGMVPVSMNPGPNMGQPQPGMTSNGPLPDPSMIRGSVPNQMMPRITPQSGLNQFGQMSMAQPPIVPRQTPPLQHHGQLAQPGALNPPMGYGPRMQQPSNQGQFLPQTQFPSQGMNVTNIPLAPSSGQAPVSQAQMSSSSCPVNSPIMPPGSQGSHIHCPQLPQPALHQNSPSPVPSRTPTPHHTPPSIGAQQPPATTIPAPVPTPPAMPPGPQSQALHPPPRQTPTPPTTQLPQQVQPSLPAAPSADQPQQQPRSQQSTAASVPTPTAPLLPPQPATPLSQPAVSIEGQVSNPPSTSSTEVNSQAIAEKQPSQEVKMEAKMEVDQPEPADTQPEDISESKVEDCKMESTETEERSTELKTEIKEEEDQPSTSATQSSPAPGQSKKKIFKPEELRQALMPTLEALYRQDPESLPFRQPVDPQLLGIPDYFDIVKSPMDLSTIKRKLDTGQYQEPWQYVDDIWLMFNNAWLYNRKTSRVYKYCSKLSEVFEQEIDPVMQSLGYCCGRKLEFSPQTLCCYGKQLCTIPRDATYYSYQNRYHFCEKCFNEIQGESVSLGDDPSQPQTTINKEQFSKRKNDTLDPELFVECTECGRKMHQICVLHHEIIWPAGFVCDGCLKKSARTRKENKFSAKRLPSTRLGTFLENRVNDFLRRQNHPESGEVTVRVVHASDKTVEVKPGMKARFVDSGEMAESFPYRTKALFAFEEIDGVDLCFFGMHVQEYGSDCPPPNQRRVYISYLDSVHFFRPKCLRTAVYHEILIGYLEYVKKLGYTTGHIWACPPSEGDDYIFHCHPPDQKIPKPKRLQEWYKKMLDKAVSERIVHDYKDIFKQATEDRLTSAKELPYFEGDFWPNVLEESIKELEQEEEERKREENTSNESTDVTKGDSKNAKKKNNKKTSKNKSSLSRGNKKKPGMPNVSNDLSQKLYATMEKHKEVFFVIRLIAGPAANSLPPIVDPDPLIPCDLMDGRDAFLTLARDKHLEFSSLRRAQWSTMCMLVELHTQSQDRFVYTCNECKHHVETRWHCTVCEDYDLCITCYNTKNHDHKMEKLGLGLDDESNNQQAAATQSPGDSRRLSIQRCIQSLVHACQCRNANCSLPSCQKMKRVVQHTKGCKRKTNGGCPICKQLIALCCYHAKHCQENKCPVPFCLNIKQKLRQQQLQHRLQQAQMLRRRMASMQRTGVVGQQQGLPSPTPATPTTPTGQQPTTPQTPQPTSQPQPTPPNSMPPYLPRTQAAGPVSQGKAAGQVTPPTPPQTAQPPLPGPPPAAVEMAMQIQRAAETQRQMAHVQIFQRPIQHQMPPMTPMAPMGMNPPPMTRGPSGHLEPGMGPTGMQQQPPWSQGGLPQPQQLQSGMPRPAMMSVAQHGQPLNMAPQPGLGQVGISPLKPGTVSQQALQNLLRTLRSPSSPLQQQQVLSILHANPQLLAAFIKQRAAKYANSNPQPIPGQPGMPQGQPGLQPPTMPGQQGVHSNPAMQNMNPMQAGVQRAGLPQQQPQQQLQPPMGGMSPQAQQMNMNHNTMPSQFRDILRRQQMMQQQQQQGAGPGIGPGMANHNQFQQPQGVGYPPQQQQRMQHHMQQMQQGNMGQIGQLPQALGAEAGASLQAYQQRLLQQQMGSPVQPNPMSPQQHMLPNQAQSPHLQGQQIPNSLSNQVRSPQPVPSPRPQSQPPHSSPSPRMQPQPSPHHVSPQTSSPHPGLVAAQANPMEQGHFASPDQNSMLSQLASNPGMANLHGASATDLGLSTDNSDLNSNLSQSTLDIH
UniProt Q92793, residues 2-2442: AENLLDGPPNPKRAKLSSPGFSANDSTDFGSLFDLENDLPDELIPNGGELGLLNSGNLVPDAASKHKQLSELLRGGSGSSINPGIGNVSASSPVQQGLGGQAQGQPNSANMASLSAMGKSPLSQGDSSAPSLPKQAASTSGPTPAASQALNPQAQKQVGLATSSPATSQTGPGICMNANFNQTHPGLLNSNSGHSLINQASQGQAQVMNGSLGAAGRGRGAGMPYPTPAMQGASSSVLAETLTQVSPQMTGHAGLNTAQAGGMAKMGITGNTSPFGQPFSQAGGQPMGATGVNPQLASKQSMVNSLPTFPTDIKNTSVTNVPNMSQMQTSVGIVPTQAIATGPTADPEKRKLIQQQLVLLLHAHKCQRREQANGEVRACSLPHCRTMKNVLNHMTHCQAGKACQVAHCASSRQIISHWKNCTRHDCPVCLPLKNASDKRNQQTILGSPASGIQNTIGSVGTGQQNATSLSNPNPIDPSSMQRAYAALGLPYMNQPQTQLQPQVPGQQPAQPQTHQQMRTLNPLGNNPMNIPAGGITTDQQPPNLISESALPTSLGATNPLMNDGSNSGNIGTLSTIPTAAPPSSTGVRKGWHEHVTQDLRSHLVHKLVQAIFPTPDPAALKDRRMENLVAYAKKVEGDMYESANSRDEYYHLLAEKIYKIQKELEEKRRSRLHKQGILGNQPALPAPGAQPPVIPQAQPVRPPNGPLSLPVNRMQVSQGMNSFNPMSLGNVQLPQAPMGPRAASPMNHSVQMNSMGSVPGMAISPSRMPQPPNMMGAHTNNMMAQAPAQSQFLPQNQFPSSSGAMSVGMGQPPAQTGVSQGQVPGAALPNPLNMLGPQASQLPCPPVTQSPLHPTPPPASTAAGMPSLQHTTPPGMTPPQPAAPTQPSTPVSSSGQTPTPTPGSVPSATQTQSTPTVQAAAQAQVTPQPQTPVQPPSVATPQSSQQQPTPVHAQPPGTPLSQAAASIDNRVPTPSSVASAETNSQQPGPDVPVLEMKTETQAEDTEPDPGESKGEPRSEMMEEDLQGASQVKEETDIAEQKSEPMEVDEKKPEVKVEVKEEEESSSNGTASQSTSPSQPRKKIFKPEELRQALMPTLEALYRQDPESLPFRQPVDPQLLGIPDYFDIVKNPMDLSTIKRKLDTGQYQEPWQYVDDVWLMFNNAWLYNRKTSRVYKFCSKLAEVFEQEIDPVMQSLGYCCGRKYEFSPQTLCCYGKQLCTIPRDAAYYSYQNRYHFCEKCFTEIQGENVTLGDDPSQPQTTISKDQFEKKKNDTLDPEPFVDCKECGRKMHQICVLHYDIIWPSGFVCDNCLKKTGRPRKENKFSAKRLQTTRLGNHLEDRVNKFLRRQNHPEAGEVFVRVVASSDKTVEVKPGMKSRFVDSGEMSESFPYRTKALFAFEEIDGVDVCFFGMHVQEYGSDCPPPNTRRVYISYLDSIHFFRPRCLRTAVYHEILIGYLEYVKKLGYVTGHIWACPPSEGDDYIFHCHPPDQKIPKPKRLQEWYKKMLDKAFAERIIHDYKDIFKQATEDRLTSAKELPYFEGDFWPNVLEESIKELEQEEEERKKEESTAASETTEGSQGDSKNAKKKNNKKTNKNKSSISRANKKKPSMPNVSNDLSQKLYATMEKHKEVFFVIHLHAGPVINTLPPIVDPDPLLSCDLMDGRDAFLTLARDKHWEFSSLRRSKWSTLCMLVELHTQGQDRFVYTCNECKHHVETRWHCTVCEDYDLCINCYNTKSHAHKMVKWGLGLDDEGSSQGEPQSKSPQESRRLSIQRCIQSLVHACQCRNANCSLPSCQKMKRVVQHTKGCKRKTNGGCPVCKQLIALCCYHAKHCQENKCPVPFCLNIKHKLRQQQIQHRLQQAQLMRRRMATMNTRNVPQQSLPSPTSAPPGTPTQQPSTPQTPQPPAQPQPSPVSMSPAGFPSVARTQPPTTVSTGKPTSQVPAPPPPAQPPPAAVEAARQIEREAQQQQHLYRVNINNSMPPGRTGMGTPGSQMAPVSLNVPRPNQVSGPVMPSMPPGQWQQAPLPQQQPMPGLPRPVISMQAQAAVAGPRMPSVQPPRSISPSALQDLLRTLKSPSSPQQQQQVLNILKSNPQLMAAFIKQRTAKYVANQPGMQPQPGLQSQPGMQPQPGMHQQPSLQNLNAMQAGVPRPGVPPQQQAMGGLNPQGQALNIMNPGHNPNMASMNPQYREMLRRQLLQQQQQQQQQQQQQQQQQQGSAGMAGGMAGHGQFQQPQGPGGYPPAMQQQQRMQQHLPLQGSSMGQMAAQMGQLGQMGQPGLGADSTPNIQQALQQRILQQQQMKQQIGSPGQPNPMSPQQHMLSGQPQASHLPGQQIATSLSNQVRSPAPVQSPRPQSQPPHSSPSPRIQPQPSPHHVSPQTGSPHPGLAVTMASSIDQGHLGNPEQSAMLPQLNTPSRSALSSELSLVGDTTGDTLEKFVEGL
C10orf12 (Q96JN0, form named): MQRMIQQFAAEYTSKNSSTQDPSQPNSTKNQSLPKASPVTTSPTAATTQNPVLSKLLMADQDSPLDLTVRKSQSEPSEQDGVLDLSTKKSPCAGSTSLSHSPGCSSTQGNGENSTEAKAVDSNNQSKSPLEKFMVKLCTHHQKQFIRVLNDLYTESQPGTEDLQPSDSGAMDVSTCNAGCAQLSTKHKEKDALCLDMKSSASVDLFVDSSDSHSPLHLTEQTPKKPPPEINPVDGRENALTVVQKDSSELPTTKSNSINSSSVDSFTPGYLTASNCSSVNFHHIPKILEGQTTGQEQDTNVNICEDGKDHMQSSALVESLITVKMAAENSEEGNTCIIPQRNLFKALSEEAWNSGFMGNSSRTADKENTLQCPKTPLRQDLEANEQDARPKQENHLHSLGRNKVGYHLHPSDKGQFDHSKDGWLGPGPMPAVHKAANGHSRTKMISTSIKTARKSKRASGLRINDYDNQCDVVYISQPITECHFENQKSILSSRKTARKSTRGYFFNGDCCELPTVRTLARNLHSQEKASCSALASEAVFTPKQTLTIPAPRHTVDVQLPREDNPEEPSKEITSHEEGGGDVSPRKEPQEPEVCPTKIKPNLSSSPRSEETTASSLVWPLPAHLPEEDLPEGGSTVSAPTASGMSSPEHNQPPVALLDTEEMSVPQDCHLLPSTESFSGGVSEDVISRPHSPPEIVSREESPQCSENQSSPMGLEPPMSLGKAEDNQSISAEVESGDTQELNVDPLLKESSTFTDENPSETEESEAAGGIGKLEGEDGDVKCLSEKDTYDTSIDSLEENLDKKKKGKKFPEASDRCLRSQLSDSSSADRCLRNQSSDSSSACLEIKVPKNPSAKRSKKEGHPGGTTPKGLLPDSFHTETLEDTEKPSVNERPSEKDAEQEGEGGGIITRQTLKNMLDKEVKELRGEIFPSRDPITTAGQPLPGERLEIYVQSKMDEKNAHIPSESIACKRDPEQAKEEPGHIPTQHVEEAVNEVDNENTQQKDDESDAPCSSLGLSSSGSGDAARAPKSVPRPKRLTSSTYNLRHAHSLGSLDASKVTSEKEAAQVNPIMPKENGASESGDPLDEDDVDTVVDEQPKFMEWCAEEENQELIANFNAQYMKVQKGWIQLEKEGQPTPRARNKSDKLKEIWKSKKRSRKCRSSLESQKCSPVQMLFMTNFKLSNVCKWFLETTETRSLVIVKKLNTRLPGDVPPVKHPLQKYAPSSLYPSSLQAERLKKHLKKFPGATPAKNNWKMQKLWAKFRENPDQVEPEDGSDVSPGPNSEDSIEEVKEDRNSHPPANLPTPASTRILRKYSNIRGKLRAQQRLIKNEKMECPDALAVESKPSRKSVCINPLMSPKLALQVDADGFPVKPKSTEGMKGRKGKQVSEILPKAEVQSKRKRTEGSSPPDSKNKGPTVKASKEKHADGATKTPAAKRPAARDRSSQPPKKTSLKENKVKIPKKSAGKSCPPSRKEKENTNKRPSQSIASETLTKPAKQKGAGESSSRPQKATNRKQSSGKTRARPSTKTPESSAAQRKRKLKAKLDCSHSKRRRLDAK
UniProt Q6ZUJ4, residues 80-267: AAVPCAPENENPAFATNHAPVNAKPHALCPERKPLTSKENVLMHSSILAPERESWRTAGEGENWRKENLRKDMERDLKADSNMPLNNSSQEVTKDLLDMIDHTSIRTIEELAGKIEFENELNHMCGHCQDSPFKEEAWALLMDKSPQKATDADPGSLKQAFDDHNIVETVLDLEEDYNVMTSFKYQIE

Assays:
Assay in all cases: BioID2 proximity labelling, HEK293 cells
p300 (human) = p300 (human) (UniProt Q09472)
CBP (human) = CBP (human) (UniProt Q92793)
C10orf12 (human) = C10orf12 (human) (UniProt Q96JN0)

| binding (p300 (human)) | binding (CBP (human)) | binding (C10orf12 (human)) | Substance |
| --- | --- | --- | --- |
| binds | binds | – | C-terminal fragment of C3orf62 fused to SRF (C3orf62-Cterm), tagged with BirA-FLAG (from UniProt Q6ZUJ4 80-267) |
| – | – | binds | SUZ12 tagged with BirA-FLAG (from UniProt Q15022 1-739) |
